Some entries share one result that the patent states for a list of compounds. Some compounds share one range, which may span the group rather than tell each member.
How the values were obtained:
[1] = molecular target: T1, proteinase-activated receptor-2 (PAR-2) (Homo sapiens, UniProt P55085); assay: Lectin labeling of live cells with receptor targeted stimulation, CHO/PAR-2; assay type: cell-based; conditions: CHO/PAR-2, PAR-2 agonist peptide stimulation
T1 construct: expressed in transfected cells; host or cells: CHO-K1 cell line clone #04, prepared in-house
T1 sequence (P55085 26-397): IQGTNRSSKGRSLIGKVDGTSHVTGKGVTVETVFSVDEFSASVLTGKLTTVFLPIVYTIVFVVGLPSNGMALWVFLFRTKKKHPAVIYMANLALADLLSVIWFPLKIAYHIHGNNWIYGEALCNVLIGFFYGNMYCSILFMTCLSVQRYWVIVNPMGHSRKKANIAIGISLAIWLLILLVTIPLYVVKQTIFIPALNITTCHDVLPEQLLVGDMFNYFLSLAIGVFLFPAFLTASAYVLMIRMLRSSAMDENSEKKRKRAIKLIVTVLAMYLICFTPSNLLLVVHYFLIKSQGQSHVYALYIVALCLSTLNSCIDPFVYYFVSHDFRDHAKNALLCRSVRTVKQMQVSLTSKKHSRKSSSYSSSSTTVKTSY

[2] = test system: CHO/ETAR cell membrane protein; assay: Lectin blotting of ETAR membrane sample; assay type: binding; conditions: biotinylated lectin 5 μg/ml, exposure one to three minutes
Experimental: Membrane preparation was conducted as follows: Cells were cultured in five T175 flasks until confluency. Confluent cells were detached by applying 3 ml of EDTA solution onto the PBS washed cells. Following a 20-minute incubation at 37° C. and 5% CO2, cells were resuspended in 12 ml of starvation medium (standard medium without FCS), counted, and centrifuged in a Heraeus Megafuge 1.0R at 133 rcf for 4 minutes. All subsequent steps were carried out on ice and with ice cold solutions. After unification of all pellet fractions, hypotonic lysis buffer was added to the cells at a ratio of 1 ml per 5*10^7 cells. Additionally, protease inhibitor cocktail was added to 50 μl per 5*10^7 cells. Cells were homogenized with 30 strokes in a 5 ml potter on ice, centrifuged at 4° C. and 917 rcf for 10 minutes, and the supernatant was stored in an ultracentrifuge tube on ice. The pellet fraction was homogenized and centrifuged once again as described above. The supernatants of both procedures were unified and centrifuged at 4° C. and 100,000 rcf for 45 minutes in a Sorvall ultra-centrifuge. The supernatant of this centrifugation procedure was withdrawn and the pellet dissolved in 0.5 ml or 1.0 ml modified SDS PAGE loading buffer containing Tris-HCl, SDS, glycerol, but no β-mercapto-ethanol or dyes and stored in small aliquots of 50 μl at −20° C. […]

Substance | early spot formation, time after stimulation [1] | number of intensive bands in lectin blot [2]
Phaseolus vulgaris leucoagglutin [PHA-L] | 20 to 30 min | –
Lens culinaris agglutin [LCA] | – | at least 13

— patent publication US20100068747A1, “Generic Assay for Monitoring Endocytosis” (Evotec Technologies GmbH, priority 2005, published 2010)
